Laboratory results published in PMC4741634.
These are yes or no findings as the source states them, for the method shown. In cells and extracts the contact can be indirect. Some entries that bind do so weakly or less than the wild type.

Sequences of proteins named here, by UniProt entry; tags and fusion partners are left off.
UniProt P10275: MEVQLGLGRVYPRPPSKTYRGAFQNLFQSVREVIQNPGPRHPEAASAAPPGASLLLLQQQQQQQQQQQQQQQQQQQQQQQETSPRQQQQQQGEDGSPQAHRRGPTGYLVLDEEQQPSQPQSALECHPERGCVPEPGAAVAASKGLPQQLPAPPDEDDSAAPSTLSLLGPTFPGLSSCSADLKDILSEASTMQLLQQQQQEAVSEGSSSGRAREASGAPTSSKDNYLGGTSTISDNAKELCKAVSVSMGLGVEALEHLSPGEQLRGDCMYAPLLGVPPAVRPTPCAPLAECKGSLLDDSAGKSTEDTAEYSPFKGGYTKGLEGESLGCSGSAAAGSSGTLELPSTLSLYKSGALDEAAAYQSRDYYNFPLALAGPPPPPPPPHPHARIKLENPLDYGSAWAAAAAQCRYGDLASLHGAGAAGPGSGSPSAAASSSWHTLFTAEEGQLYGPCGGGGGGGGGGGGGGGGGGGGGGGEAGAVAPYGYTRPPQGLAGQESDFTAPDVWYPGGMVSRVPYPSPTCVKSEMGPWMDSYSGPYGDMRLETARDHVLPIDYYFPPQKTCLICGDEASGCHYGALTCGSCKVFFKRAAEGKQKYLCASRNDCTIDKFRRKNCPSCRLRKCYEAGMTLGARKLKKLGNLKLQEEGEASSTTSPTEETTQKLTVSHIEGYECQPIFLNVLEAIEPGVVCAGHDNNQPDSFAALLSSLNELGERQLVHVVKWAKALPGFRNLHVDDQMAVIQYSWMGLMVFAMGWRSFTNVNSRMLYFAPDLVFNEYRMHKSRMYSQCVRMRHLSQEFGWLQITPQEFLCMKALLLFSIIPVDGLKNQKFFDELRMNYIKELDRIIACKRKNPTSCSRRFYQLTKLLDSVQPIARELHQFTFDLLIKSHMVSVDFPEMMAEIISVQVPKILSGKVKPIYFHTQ

Target: androgen receptor, ectopically overexpressed in AN3CA cells (UniProt P10275)
Assay: co-IP; AN3CA cells transfected with PWP1/GFP/Neo-AR or the empty vector; immunoprecipitation with anti-AR or control antibody, Western blotting with anti-KDM4B or anti-KDM4A

B1: KDM4A (protein, UniProt O75164 1-1064)
chain: MASESETLNPSARIMTFYPTMEEFRNFSRYIAYIESQGAHRAGLAKVVPPKEWKPRASYDDIDDLVIPAPIQQLVTGQSGLFTQYNIQKKAMTVREFRKIANSDKYCTPRYSEFEELERKYWKNLTFNPPIYGADVNGTLYEKHVDEWNIGRLRTILDLVEKESGITIEGVNTPYLYFGMWKTSFAWHTEDMDLYSINYLHFGEPKSWYSVPPEHGKRLERLAKGFFPGSAQSCEAFLRHKMTLISPLMLKKYGIPFDKVTQEAGEFMITFPYGYHAGFNHGFNCAESTNFATRRWIEYGKQAVLCSCRKDMVKISMDVFVRKFQPERYKLWKAGKDNTVIDHTLPTPEAAEFLKESELPPRAGNEEECPEEDMEGVEDGEEGDLKTSLAKHRIGTKRHRVCLEIPQEVSQSELFPKEDLSSEQYEMTECPAALAPVRPTHSSVRQVEDGLTFPDYSDSTEVKFEELKNVKLEEEDEEEEQAAAALDLSVNPASVGGRLVFSGSKKKSSSSLGSGSSRDSISSDSETSEPLSCRAQGQTGVLTVHSYAKGDGRVTVGEPCTRKKGSAARSFSERELAEVADEYMFSLEENKKSKGRRQPLSKLPRHHPLVLQECVSDDETSEQLTPEEEAEETEAWAKPLSQLWQNRPPNFEAEKEFNETMAQQAPHCAVCMIFQTYHQVEFGGFNQNCGNASDLAPQKQRTKPLIPEMCFTSTGCSTDINLSTPYLEEDGTSILVSCKKCSVRVHASCYGVPPAKASEDWMCSRCSANALEEDCCLCSLRGGALQRANDDRWVHVSCAVAILEARFVNIAERSPVDVSKIPLPRFKLKCIFCKKRRKRTAGCCVQCSHGRCPTAFHVSCAQAAGVMMQPDDWPFVVFITCFRHKIPNLERAKGALQSITAGQKVISKHKNGRFYQCEVVRLTTETFYEVNFDDGSFSDNLYPEDIVSQDCLQFGPPAEGEVVQVRWTDGQVYGAKFVASHPIQMYQVEFEDGSQLVVKRDDVYTLDEELPKRVKSRLSVASDMRFNEIFTEKEVKQEKKRQRVINSRYREDYIEPALYRAIME
- binding: binds
